Test results from patent US20220370615A1, “Prevention of Illicit Manufacture of Methamphetamine from Pseudoephedrine Using Food Flavor Excipients” (Satara Pharmaceuticals, priority 2021, published 2022).

Legend:
[1] = Reaction of excipient and pseudoephedrine with lithium in liquid ammonia (Li-NH3 reduction), methamphetamine quantified; details: excipient 1.0 mmol + pseudoephedrine 1.0 mmol, lithium 5.0 mmol in liquid ammonia, about -20° C., about 1 hour; pseudoephedrine only = 100
[2] = Reaction of excipient and pseudoephedrine with red phosphorous and hydriodic acid (P-HI reduction), methamphetamine quantified; details: excipient 1.0 mmol + pseudoephedrine 1.0 mmol, 57% aqueous hydriodic acid, red phosphorous 1.6 mmol, 90-100° C., 1-1.5 hours; pseudoephedrine only = 100

Row | SMILES | Relative percentage of methamphetamine formation, Percent Methamphetamine, Li-NH3 Reduction [1] | Relative percentage of methamphetamine formation, Percent Methamphetamine, P-HI Reduction [2] [%]
1 | COc1nccnc1CC(C)C [2-Isobutyl-3-methoxypyrazine] | 2% | 27
2 | COc1nccnc1C [2-Methoxy-3-methylpyrazine] | <1% | 2.0
3 | CC(=O)c1cnccn1 [Acetylpyrazine] | <<1% | 6
4 | CC(=O)c1nccs1 [2-Acetylthiazole] | <1% | 
5 | CCOc1cnc(C)cn1 [2-Ethoxy-5-methylpyrazine] | 7% | 15
6 | CCOc1cncc(C)n1 [2-Ethoxy-6-methylpyrazine] | 4% | 13
7 | Cc1cnc(C)c(C)n1 [2,3,5-Trimethylpyrazine] | 8% | 20
8 | CC(C)COC(=O)c1ccccc1N [Isobutyl anthranilate] | <1% | 2.3
